The data set can be described thus: Macrophage viability in the same high content assay. The following applies: mouse.

Structures are written as SMILES.

One may read the IC50 as the concentration at which inhibition is half-maximal. A high value points to a need for much substance. For the molecule `CN[C@@H]1C[C@H]2O[C@@](C)([C@@H]1OC)n1c3ccccc3c3c4c(c5c6ccccc6n2c5c31)C(=O)NC4` [STA, staurosporine, reference compound], half-maximal inhibition (IC50 at 72 h) was put at 3.4 ± 1.3 nM.

The values above are taken from PMC8762250, “Identification of Novel Chemical Scaffolds that Inhibit the Growth of Mycobacterium tuberculosis in Macrophages” (Frontiers in Pharmacology, 2022).
